Measurements: publication PMC9249397

Sequences of proteins named here, by UniProt entry; tags and fusion partners are left off. A change or cut given only in a name is not applied to a line headed by its entry.
UniProt Q8N7X0: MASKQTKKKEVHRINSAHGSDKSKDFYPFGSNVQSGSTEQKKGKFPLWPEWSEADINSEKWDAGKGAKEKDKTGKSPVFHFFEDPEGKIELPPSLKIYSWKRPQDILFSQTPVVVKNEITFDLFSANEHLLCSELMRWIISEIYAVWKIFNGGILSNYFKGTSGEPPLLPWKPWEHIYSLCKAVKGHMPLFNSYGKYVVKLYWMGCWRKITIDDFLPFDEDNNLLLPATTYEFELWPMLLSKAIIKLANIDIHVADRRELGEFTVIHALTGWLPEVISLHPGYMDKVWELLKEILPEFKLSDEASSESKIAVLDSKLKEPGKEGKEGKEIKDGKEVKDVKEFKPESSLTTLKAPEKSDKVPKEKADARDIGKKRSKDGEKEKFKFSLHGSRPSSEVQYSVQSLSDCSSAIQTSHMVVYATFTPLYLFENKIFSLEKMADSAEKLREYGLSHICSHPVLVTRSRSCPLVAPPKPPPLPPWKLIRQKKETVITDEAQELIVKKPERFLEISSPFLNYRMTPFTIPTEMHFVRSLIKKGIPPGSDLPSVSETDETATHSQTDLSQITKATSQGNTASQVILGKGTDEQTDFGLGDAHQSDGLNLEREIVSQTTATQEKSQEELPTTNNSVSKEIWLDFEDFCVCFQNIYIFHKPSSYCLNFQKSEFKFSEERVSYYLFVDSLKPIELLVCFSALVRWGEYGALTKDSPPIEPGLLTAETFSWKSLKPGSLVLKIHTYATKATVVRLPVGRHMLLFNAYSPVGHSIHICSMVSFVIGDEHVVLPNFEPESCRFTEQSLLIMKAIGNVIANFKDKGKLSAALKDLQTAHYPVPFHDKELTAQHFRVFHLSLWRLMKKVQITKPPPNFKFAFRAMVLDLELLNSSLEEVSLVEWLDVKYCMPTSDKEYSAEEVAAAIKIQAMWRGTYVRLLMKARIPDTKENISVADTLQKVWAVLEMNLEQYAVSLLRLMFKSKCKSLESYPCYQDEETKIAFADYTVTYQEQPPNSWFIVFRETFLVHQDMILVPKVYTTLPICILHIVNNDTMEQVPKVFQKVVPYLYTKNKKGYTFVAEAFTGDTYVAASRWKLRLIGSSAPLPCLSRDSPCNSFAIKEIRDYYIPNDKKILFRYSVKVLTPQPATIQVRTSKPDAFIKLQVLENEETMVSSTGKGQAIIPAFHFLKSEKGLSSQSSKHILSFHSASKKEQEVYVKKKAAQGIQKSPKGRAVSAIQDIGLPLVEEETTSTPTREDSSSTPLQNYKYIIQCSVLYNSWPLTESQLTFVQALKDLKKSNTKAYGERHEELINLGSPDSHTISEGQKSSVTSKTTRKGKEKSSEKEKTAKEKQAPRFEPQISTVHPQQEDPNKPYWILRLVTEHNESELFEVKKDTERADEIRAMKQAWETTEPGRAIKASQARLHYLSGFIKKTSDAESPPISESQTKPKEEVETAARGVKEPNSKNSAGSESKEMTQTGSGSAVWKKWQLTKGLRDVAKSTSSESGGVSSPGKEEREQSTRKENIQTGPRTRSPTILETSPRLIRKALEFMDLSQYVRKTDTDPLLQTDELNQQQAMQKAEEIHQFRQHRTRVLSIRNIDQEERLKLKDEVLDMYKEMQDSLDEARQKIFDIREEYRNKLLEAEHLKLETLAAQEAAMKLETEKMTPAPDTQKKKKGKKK
UniProt Q9P0V9: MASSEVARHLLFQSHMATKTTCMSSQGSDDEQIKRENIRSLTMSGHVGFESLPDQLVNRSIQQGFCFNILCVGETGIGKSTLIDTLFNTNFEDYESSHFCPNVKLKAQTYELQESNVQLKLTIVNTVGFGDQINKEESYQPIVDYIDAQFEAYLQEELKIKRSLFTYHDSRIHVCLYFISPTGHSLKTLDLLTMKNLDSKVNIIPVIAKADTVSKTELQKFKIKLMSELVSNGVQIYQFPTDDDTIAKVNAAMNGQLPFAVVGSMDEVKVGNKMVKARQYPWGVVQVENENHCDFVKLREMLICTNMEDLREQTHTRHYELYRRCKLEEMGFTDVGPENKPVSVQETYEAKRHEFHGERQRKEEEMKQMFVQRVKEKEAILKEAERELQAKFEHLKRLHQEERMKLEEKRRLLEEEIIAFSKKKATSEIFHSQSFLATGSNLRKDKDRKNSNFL

Molecular target: ADGB-ΔCCD (UniProt Q8N7X0)
Assay: co-IP; lysates (1% triton buffer) of HEK293 cells (co-)transfected with the two constructs, IP by antibody to the protein or its tag (FLAG, V5, GFP), immunoblot; for GFP-Globin and V5-CaM also after heme depletion (heme-depleted FBS, 3 mM succinylacetone, 24 hr)

binding: binds
Substance: CCD mutant SEPT10 (from UniProt Q9P0V9)

These are yes or no findings as the source states them, for the method shown. Binding seen in cells or lysates may run through a third protein. A result given as binding can be weak or reduced; the word gives no strength.
